# Cleaved PARP in drug-treated melanoma cells

From a melanoma drug combination screen (doi:10.1371/journal.pone.0140310); values rounded.

Compounds and concentrations:
FK866: O=C(/C=C/c1cccnc1)NCCCCC1CCN(C(=O)c2ccccc2)CC1 at 0.05 µM
darinaparsin: C[As](C)SC[C@H](NC(=O)CC[C@H](N)C(=O)O)C(=O)NCC(=O)O at 2 µM
GSK650394: O=C(O)c1ccc(-c2c[nH]c3ncc(-c4ccccc4)cc23)cc1C1CCCC1 at 0.8 µM
AS-252424: O=C1NC(=O)/C(=C/c2ccc(-c3ccc(F)cc3O)o2)S1 at 5 µM
lestaurtinib: C[C@]12O[C@H](C[C@]1(O)CO)n1c3ccccc3c3c4c(c5c6ccccc6n2c5c31)CNC4=O at 0.02 µM
pazopanib: Cc1ccc(Nc2nccc(N(C)c3ccc4c(C)n(C)nc4c3)n2)cc1S(N)(=O)=O at 2 µM
tanespimycin: C=CCNC1=C2C[C@@H](C)C[C@H](OC)[C@H](O)[C@@H](C)/C=C(\C)[C@H](OC(N)=O)[C@@H](OC)/C=C\C=C(/C)C(=O)NC(=CC1=O)C2=O at 0.01 µM
SNS-314: O=C(Nc1cccc(Cl)c1)Nc1ncc(CCNc2ncnc3ccsc23)s1 at 0.004 µM
fingolimod: CCCCCCCCc1ccc(CCC(N)(CO)CO)cc1 at 10 µM

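The test systems are human melanoma cell lines, treated with a pair of drugs for 72 h and then stained and imaged. Values are the share of nuclei positive for cleaved PARP as a percentage of the same share in the DMSO control: 100 is the control level, higher means more apoptosis. Every drug was used at one fixed concentration, the higher of two screened. These are primary screening values without error estimates. The marker varies much from line to line, for technical or biological reasons.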
Only some of the drugs and lines screened are listed, without regard to their results.
A dash means that no value is listed here.

Drugs	C32	A2058	LB2518-MEL	COLO 829	WM451Lu	501mel	WM115	WM1716	LOX IMVI	MEL-HO	SK-MEL-28	MZ2-MEL
fingolimod + pazopanib	862	411	61800	81.1	463	-	6020	76.6	164	696	3990	6500
darinaparsin + pazopanib	56.6	148	278	162	109	-	62.5	29.7	519	95.9	23.2	152
SNS-314 + tanespimycin	1730	238	-	124	221	-	848	49.7	495	102	162	-
darinaparsin + AS-252424	88.6	173	64.5	94.3	128	211	121	148	115	49.3	55.9	161
fingolimod + tanespimycin	199	1480	6240	472	2800	-	5110	63.7	261	881	6440	13700
FK866 + tanespimycin	794	288	466	488	631	-	1580	281	43.2	94.2	51.5	1530
GSK650394 + SNS-314	78.4	307	-	153	238	-	117	98.6	640	105	375	-
SNS-314 + FK866	93.1	106	291	531	127	-	308	217	59.4	156	364	390
tanespimycin + GSK650394	2660	182	152	183	190	-	2240	328	92.5	189	290	407
tanespimycin + lestaurtinib	1150	788	844	207	99.9	-	3070	125	29.4	118	96.3	320
fingolimod + AS-252424	1910	2190	14900	272	17600	2470	750	711	267	6310	-	6140
fingolimod + SNS-314	2380	2760	17500	167	2250	-	2620	758	381	3270	6630	4280
SNS-314 + darinaparsin	645	157	79.8	26.5	341	-	497	217	153	83.6	242	279
AS-252424 + pazopanib	167	101	125	168	86.8	149	54.0	230	110	97.9	106	119
lestaurtinib + darinaparsin	128	94.7	-	110	509	-	481	51.2	95.2	127	45.6	-
pazopanib + GSK650394	32.3	121	-	37.8	195	-	77.5	139	213	87.0	114	-
darinaparsin + FK866	226	140	935	336	153	-	302	104	28.9	110	78.3	385
GSK650394 + FK866	67.6	65.2	151	311	113	-	177	392	108	254	200	913
FK866 + pazopanib	177	79.3	700	463	88.4	-	39.0	74.5	68.8	248	230	2520
fingolimod + darinaparsin	1640	1450	15500	303	5550	-	2820	336	567	7500	11500	13300
FK866 + lestaurtinib	29.1	151	289	413	80.7	-	172	18.5	25.9	60.9	109	300
AS-252424 + lestaurtinib	81.4	176	154	121	117	206	135	235	194	90.4	31.4	144
pazopanib + lestaurtinib	75.3	88.7	116	198	169	-	87.0	51.2	133	107	126	105
darinaparsin + tanespimycin	259	572	231	192	446	-	3000	149	171	108	222	119
fingolimod + GSK650394	496	2800	45600	308	3050	-	1010	8430	710	4110	4010	171
tanespimycin + AS-252424	591	142	134	117	167	105	873	52.5	168	145	93.4	88.8
pazopanib + tanespimycin	1250	155	158	161	460	-	1980	157	118	68.4	30.1	139
pazopanib + SNS-314	128	336	483	74.4	80.6	-	362	183	75.1	102	67.1	359
lestaurtinib + SNS-314	105	166	111	128	461	-	337	216	103	97.7	120	248
FK866 + fingolimod	512	278	43000	1650	2880	-	3010	6900	779	4880	2060	9900
SNS-314 + AS-252424	96.2	98.9	74.5	119	285	135	570	192	102	83.4	161	157
FK866 + AS-252424	64.7	108	218	504	84.1	118	52.7	133	81.4	96.0	108	508
GSK650394 + lestaurtinib	166	124	359	53.2	164	-	445	61.7	84.2	101	118	151
darinaparsin + GSK650394	132	156	248	127	76.6	-	132	150	52.6	107	260	164
lestaurtinib + fingolimod	695	1570	17900	46.1	1440	-	4750	336	213	1710	1090	13600
AS-252424 + GSK650394	91.1	231	68.1	268	127	85.7	93.7	93.5	78.8	128	119	105

4 of the entries, repeated:

Drugs	C32	A2058	LB2518-MEL	COLO 829	WM451Lu	501mel	WM115	WM1716	LOX IMVI	MEL-HO	SK-MEL-28	MZ2-MEL
pazopanib + SNS-314	128	336	483	74.4	80.6	-	362	183	75.1	102	67.1	359
lestaurtinib + darinaparsin	128	94.7	-	110	509	-	481	51.2	95.2	127	45.6	-
FK866 + tanespimycin	794	288	466	488	631	-	1580	281	43.2	94.2	51.5	1530
tanespimycin + GSK650394	2660	182	152	183	190	-	2240	328	92.5	189	290	407